Results deposited as PubChem BioAssay AID1259308 (NCATS, 2017).

- Test: 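Genes whose loss raises luciferase production in HEK293 cells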 (primary screen)
- System: human HEK293 embryonic kidney cells stably expressing firefly luciferase (HEK-CMV-Luc2-Hygro)
- Knock-down reagent: single siRNA against human genes, 0.8 pmol siRNA per well
- Time to read-out: 72 h
- Detection: 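Luciferase light (ONE-Glo) measured on one replicate plate set and viability (CellTiter-Glo) on the other, scaled to a negative control siRNA, with robust z-scores and luciferase per cell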
- Direction: total luciferase, z-score and total luciferase, % of control: higher = more reporter protein produced; luciferase per cell, z-score: higher = more reporter output per viable cell; viable cells, % of control: higher = more viable cells
- Active means: 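Active when the median/MAD z-score for overall luciferase is greater than 3; a gene was taken forward for validation with new siRNAs if at least two of its three siRNAs passed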
- Meaning of the calls: active = raised luciferase; inactive = no rise
Shown is a random part of about 59,000 reagents. About 1,510 of them (2.6%) were called active. 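Calls use total luciferase alone and ignore viability, so some active siRNAs may act by altering cell number.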 A number with no mark means an inactive call. No sequences are given here.

target	PubChem SID	total luciferase, z-score	total luciferase, % of control	luciferase per cell, z-score	viable cells, % of control
RBPMS2	SID160765044	-1.5	52.1	-1.16	78.9
RBPMS2	SID160765045	-0.697	68	-0.68	90.9
RBPMS2	SID160765046	0.24	86.7	1.14	71.7
TOB1	SID160725943	0.484	91.5	1.19	74.8
TOB1	SID160725947	-0.646	69	-0.037	77.9
TOB1	SID160725954	0.16	85.1	0.204	90.1
CD2	SID160732142	-0.176	78.4	-0.635	104
CD2	SID160738178	-1.35	55.1	0.451	54.7
CD2	SID160738188	0.949	101	0.177	107
SYNDIG1	SID160749834	0.783	97.5	0.121	106
SYNDIG1	SID160749835	0.392	89.7	0.0703	98.4
SYNDIG1	SID160749836	-0.305	75.8	-0.597	99.2
BRICD5	SID160732943	0.701	95.8	1.16	78.9
BRICD5	SID160732944	0.568	93.2	0.761	85.2
BRICD5	SID160763068	-0.248	76.9	0.685	71.8
MAGEA11	SID160776902	0.0341	82.6	0.0355	91.4
MAGEA11	SID160776903	0.98	101	0.765	92.6
MAGEA11	SID160776905	1.11	104	0.811	93.9
SUPT7L	SID160723423	0.988	102	1.87	69.3
SUPT7L	SID160723424	-1.49	52.2	-0.657	69.4
SUPT7L	SID160723425	2.65	135	3.25	63.8
ACAT2	SID160777525	-0.188	78.1	-0.993	113
ACAT2	SID160777536	-0.067	80.6	-0.601	105
ACAT2	SID160777545	-0.885	64.3	-0.852	89.9
NDUFB4P12	SID160725348	-0.723	67.5	-0.343	82.6
NDUFB4P12	SID160725349	-0.873	64.5	-1.22	99.5
NDUFB4P12	SID160767422	1.46	111	1.27	88.6
TSLIG2	SID160748587	-0.965	62.7	-0.535	80.7
TSLIG2	SID160748588	0.324	88.3	0.0136	98.4
TSLIG2	SID160748589	0.698	95.8	1.53	71.6
ZSWIM8	SID160735336	-3.2	18.3	-3	45
ZSWIM8	SID160735337	0.875	99.3	1.08	83.4
ZSWIM8	SID160735338	-0.325	75.4	-0.0527	85.5
RIF1	SID160743160	2.66	135	1.81	93.6
RIF1	SID160743161	1.76	117	0.945	102
RIF1	SID160743162	1.44	111	1	94.9
INTS11	SID160742643	2.14	124	1.49	93.9
INTS11	SID160742644	2.07	123	1.59	90.5
INTS11	SID160742645	-0.768	66.6	-0.582	86.8
CDC42P6	SID160733840	3.26 (active)	147	3.2	70.6
CDC42P6	SID160768983	0.246	86.8	1.33	68.2
CDC42P6	SID160768984	1.98	121	2.03	79.4
ZNF723	SID160770036	-1.63	49.5	2.15	31.4
ZNF723	SID160770037	1.08	103	1.47	78.5
ZNF723	SID160770038	4.66 (active)	174	2.98	89
CDKN1C	SID160741083	-0.441	73.1	-0.795	101
CDKN1C	SID160741094	0.574	93.3	1.07	78.7
CDKN1C	SID160741104	-0.196	78	-0.833	109
MRNIP	SID160740186	1.24	106	0.455	106
MRNIP	SID160740187	1.3	108	0.428	108
MRNIP	SID160740188	-0.676	68.4	-0.828	95.1
EBP	SID160744456	-1.05	61.1	-0.928	87.1
EBP	SID160744562	0.0876	83.6	-0.364	103
EBP	SID160744668	-0.903	63.9	-0.271	76.7
ZDHHC23	SID160762235	-0.453	72.9	-0.476	92.3
ZDHHC23	SID160762236	-0.322	75.5	-0.751	103
ZDHHC23	SID160762237	-0.782	66.3	0.188	70.6
